## Library screening results

By UniProt entry, the sequences of proteins in these tests, tags left out.
UniProt E9BF75, entry or part of it: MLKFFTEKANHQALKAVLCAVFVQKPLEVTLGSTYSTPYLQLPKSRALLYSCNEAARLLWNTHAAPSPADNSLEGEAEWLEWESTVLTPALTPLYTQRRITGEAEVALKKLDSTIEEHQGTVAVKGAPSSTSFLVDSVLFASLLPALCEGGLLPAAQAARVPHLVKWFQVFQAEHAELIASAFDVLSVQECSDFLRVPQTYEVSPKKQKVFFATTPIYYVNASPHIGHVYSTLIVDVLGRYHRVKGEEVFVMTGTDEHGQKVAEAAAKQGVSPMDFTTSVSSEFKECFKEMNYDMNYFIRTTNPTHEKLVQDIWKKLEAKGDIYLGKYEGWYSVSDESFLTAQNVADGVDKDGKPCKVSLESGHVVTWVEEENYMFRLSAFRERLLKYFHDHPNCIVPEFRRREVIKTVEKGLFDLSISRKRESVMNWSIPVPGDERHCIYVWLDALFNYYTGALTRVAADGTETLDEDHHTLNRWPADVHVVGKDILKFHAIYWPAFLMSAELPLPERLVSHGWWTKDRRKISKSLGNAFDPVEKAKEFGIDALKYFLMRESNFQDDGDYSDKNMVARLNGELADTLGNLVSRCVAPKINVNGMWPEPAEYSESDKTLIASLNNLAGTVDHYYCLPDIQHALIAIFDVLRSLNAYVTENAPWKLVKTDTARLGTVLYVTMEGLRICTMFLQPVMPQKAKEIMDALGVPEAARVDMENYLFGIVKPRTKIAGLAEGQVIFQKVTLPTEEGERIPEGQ

Mtb heat-shock: 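Assay on Mycobacterium tuberculosis, filed only as a heat shock assay from Cornell; the read-out is not stated. The concentration is filed as 10 mM, unlikely as a test dose, so the dose is not known. Higher reads as stronger inhibition (inferred: compounds with an IC50 in retests scored well above the rest). Of about 69,000 compounds tested this way, about 930 (1.4%) reached 50% or more in at least one test.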
LdMetRS: 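Primary screen of methionyl-tRNA synthetase; the read-out is not stated. Target: Methionyl-tRNA synthetase (putative), Leishmania donovani (UniProt E9BF75). The test concentration is not given. The values are filed as inhibition. Size under these conditions: about 68,000 compounds, about 24 of them at 50% or above in at least one test.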
Mtb growth Cornell: 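Whole-cell assay for inhibitors of Mycobacterium tuberculosis growth, labelled Cornell in the record; the read-out is not stated. The concentration is filed as 10 mM, unlikely as a test dose, so the dose is not known. Higher means stronger inhibition (inferred from two other growth screens of the library). About 53,000 compounds were tested under these conditions; 1.7% (about 900) showed 50% or more at least once.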

All values are in %. The record does not define 0% and 100%; most values in the screen are far below 50% and negative numbers occur (in some assays of this library far below -100). The compounds are a random part of those screened. A dash means the value is not listed here; it may have been measured.

| Compound | Mtb heat-shock | LdMetRS | Mtb growth Cornell |
|---|---|---|---|
| `CS(=O)(=O)NCC1CCCN(C(=O)COCc2ccccc2)C1` (configuration not stated) | 23.42 | 2.454 | 10.16 |
| `O=C(c1ccc(OCC2CC2)nc1)N1CCCC(n2cncn2)C1` (configuration not stated) | 15.77 | 12.27 | 3.423 |
| `CN(C)C(=O)c1ccc2c(c1)N(C)C(CC(=O)NC(CO)CO)CO2` (configuration not stated) | -20.84 | 14.61 | -29.29 |
| `Cn1cccc1C(=O)NC[C@]12COC[C@H]1CN(Cc1nccs1)C2` | - | 15.27 | - |
| `COc1cccc(-c2noc(-c3ccc(NCCCN)nc3)n2)c1OC` | -35.95 | 13.97 | -6.193 |
| `COc1cc(F)ccc1N1CCN(Cc2nc(C)c(C)o2)CC1` | -0.6296 | 12.32 | 24.52 |
| `CCOc1ccccc1CNC(=O)N(CC)C(C)c1cccnc1` (configuration not stated) | -30.61 | 18.77 | -10.51 |
| `CCOCC1c2c(cnn2C)CCN1C(=O)c1ccncn1` (configuration not stated) | - | 15.22 | - |
| `C[C@@H]1CN(C(=O)C2(Cn3cccn3)CC2)CC[C@@]1(O)C1CC1` | -4.065 | 13.97 | -25.9 |
| `CCN(CC)C(=O)c1ccn(COc2cccc(Cl)c2Cl)n1` | 14.33 | 9.922 | 46.8 |
| `COCCN1CCC(c2nc3ccc(NC4CCC4)cn3n2)CC1.O=C(O)C(F)(F)F` | 43.84 | - | 4.809 |
| `COc1ncccc1CNC(=O)c1csc(Br)c1` | -13.83 | 16.45 | 8.454 |
| `CCC(CNC(=O)C1CCC1)(OC)c1ccccc1` (configuration not stated) | 7.011 | 3.597 | 12.59 |
| `O[C@@H]1C[C@@H](c2nc(-c3ccccc3)no2)N(Cc2cccnc2)C1` | -16.86 | 9.446 | 8.281 |
| `CC[C@@]1(O)CCN(C(=O)c2ccsc2)C[C@H]1O` | 16.63 | 15.04 | 9.706 |
| `CCOCC(=O)N1CCCC2(CCN(c3ccccc3)C2=O)C1` (configuration not stated) | -7.806 | 2.801 | 6.598 |
| `COc1ccc2c(c1)CCN(Cc1cscn1)CC2` | -11.7 | 5.882 | 4.432 |
| `O=C(NCc1ccccn1)C1=NN(c2ccccc2)C(=O)CN1` | -9.513 | 16.62 | - |
| `O=C(NCC1CC1)[C@H]1C[C@@H]2CCN(CCc3ccccc3)C[C@H]2O1` | - | 18.68 | - |
| `CCN1CCC2(CC1)CC(NCc1cccc(C)n1)c1ccccc1O2` (configuration not stated) | - | 10.09 | - |
| `[H][C@@]12CCN(S(=O)(=O)c3ccc(C)cc3)C[C@]1(C(=O)NC)CCO2` | 0.01756 | - | -16.13 |
| `CNC(=O)N1CC[C@@H]2CN(Cc3cccnc3)S(=O)(=O)[C@@H]2CC1` | - | 15.15 | - |
| `[H][C@]12CCN(C(=O)c3cnoc3C)[C@@]1([H])CCC(=O)N2CC1CCOCC1` | 32.08 | - | -16.99 |
| `[H][C@]12CC[C@]([H])(CN(S(=O)(=O)N(C)C)C1)N(Cc1ccc3[nH]ccc3c1)C2` | 2.029 | - | 13.42 |
| `Cc1ncsc1CN1CCOC(C)(C(=O)N2CCOCC2)C1` (configuration not stated) | 14.58 | 14.17 | -3.293 |
| `CC(C)CN1C(=O)C2(CCN(Cc3cccs3)C2)c2ccccc21.O=C(O)C(F)(F)F` (configuration not stated) | 9.511 | - | - |
| `COc1ccc(CCN2CCCC(Cn3nc(C)nc3C)C2)cc1` (configuration not stated) | 5.83 | 20.83 | - |
| `CC1N(C)C(=O)COC12CCN(Cc1nccs1)CC2.O=C(O)C(F)(F)F` (configuration not stated) | 2.077 | - | 7.334 |
| `CC(=O)N1CCCN(C(=O)c2cnc3n[nH]c(C)c3c2)CC1` | -1.301 | 15.75 | 10.41 |
| `NCc1ccc(N2CCN(c3ncccn3)CC2)c(F)c1` | 10.83 | 2.997 | -5.247 |
| `CN(C)CCNC(=O)c1sc2ccccc2c1C1CCC(CN)CC1` (configuration not stated) | - | 6.299 | - |
| `CN(C)C(=O)[C@H]1C[C@@H]2CN(S(=O)(=O)Cc3ccccc3)C[C@H]1O2` | - | 12.2 | - |
| `COc1ccc(OC)c(NC(=O)c2cc3c([nH]c2=O)CCCC3=O)c1` | 14.89 | 12.63 | 11.48 |
| `COc1ncc(CN(C)C2CCN(C(C)C)CC2)cn1` | -26.19 | 7.595 | -13.23 |
| `O=C(O)C(F)(F)F.[H][C@@]12CCN(S(=O)(=O)CC)C[C@]1([H])OCCN(Cc1cccnc1)C2=O` | 1.217 | - | 29.77 |
| `CCC(=O)N1CCN(C(=O)Nc2ccccc2-c2cccs2)CC1` | 3.355 | 13.12 | 28.21 |
| `CC(C)(C)c1cc(=O)[nH]c(C2(N)CCCCC2)n1.Cl` | -132.6 | - | - |
| `O=C(NCC1CCOC1)c1cc(-c2ccccc2Cl)[nH]n1` (configuration not stated) | -2.792 | 13.07 | -5.571 |
| `Cc1noc(CCNC(=O)c2ccc(N(C)C)c(F)c2)n1` | -17.96 | 8.901 | 2.439 |
| `O=C(C1CCC2(CCN(CC3CCOCC3)CC2)O1)N1CCCC1` (configuration not stated) | - | 8.889 | - |
| `F[C@@H]1CN(CC2CCCCC2)C[C@@H]1OCc1nc2ccccc2o1` | -43.09 | 13.22 | 44.69 |
| `COc1cc2[nH]c(=O)c(CN3CCC[C@H]3CO)cc2c(OC)c1OC` | -2.258 | 7.419 | -9.029 |
| `[H][C@@]12CCN(C[C@@H]1CN1CCC(C)CC1)[C@@H](CNC(=O)c1ccco1)C2` | -52.61 | - | -34.81 |
| `Cc1nc(-c2ccccc2)n(CC(=O)NC2CCCC2)n1` | -11.23 | 16.24 | -75.73 |
| `Cc1nn(C)c2c(=O)n(CC(=O)NCCN3CCCCCC3)ccc12` | 8.318 | 13.7 | -29.5 |
| `CC(=O)c1ccc(NC(=O)c2ccc3c(c2)C2(CCCCC2)CN3)cc1.O=C(O)C(F)(F)F` | 36.54 | - | -1.575 |
| `CCCOCC1CCN(C(=O)Cn2cccc(OC)c2=O)C1` (configuration not stated) | 0.6697 | 17.77 | 4.748 |
| `CN(C)C(=O)CN1CC[C@]2(CN(CC3CC3)C[C@H]2c2ccccc2)C1=O` | - | 9.341 | - |
| `O=C(CNCCn1cccn1)NCC1(c2ccccc2)CCCC1` | -19.64 | 24.31 | - |
| `COc1cccc(NC(=O)Nc2ccc3c(c2)CC(=O)N3)c1` | -4.982 | 8.333 | -2.338 |
| `CC(=O)N1CCN(c2cc(CCNC(=O)C(C)C)nc(C3CC3)n2)CC1` | 0.3892 | 13.02 | -12.23 |
| `COCC(=O)N1CCCN(C(=O)C2Cc3ccccc3CN2C)CC1` (configuration not stated) | -25.19 | 0.7634 | -24.95 |
| `O=C(O)C(F)(F)F.O=C(O)C(F)(F)F.c1cnc(N2CCOCC3(CCCN(CC4CC4)C3)C2)cn1` (configuration not stated) | 3.075 | - | 26.93 |
| `CS(=O)(=O)CCS(=O)(=O)Cc1cc(Cl)c2c(c1)OCCCO2` | 1.635 | 15.78 | - |
| `O=C([C@H]1C[C@H]2[C@H](CCN2Cc2cccs2)O1)N1CCOCC1` | - | 16.35 | - |
| `CC(C)CC(=O)N1CCC2(CC1)COCCN2Cc1ccc(F)cc1.O=C(O)C(F)(F)F` | -13.81 | - | 0.6473 |
| `OC(CN1CCN(Cc2cccc(F)c2)CC1)C1CC1` (configuration not stated) | - | 10.84 | - |
| `Cn1ncc(C2CC(=O)NCc3nc4ccccn4c32)c1C1CC1` (configuration not stated) | 7.608 | 12.64 | - |
| `CC(C)CCN1CCN(C(=O)c2ccc(=O)[nH]n2)CC1` | 2.409 | 7.614 | - |
| `COc1ccc(CN2CCOC3(CCCN(C(C)=O)C3)C2)cc1.O=C(O)C(F)(F)F` (configuration not stated) | -46.22 | - | 23.02 |
| `CC(=O)N1N=C(c2ccccc2)OC1C(=O)N(C)Cc1ccccc1` (configuration not stated) | 18.32 | 16.94 | -13.45 |
| `O=C(NCCCNC(=O)c1ccccc1)Nc1ccc(F)cc1F` | 19.11 | 16.9 | 20.59 |
| `Cc1noc(C)c1CN1CCO[C@H]2CN(Cc3cccc(F)c3)C[C@H]21` | - | 11.95 | - |
| `[H][C@@]12CN(c3ncc(F)cn3)C[C@]1(C(=O)NC)CCCN2c1ncccn1` | -12.4 | - | -0.26 |
| `Cc1nc(Nc2ncc(C)s2)cc(C2CCCN2)n1.Cl` (configuration not stated) | 6.055 | - | 11.93 |
| `CCS(=O)(=O)c1ncc(CN2CCN(C)CC2)n1CCc1ccccc1` | -8.475 | 8.541 | -7.203 |
| `O=C(c1cc(Cl)c(Br)[nH]1)N1CCN(Cc2ccco2)CC1` | 24.4 | 5.177 | -37.19 |
| `CN(Cc1nc2ccccc2[nH]1)C(=O)CN(C)c1ccc(Cl)cn1` | -142.7 | 16.62 | - |
| `Cc1ccc(C(=O)NC2CCN(Cc3noc(C(C)(C)C)n3)CC2)s1` | -1.988 | 12.26 | 13.26 |
| `Cc1ccc(CNC(=O)c2cc(NC(=O)C3CC3)n(C)n2)o1` | 7.482 | 21.36 | - |

The last 8 entries again:

Compound,Mtb heat-shock,LdMetRS,Mtb growth Cornell
Cc1noc(C)c1CN1CCO[C@H]2CN(Cc3cccc(F)c3)C[C@H]21,-,11.95,-
[H][C@@]12CN(c3ncc(F)cn3)C[C@]1(C(=O)NC)CCCN2c1ncccn1,-12.4,-,-0.26
Cc1nc(Nc2ncc(C)s2)cc(C2CCCN2)n1.Cl (configuration not stated),6.055,-,11.93
CCS(=O)(=O)c1ncc(CN2CCN(C)CC2)n1CCc1ccccc1,-8.475,8.541,-7.203
O=C(c1cc(Cl)c(Br)[nH]1)N1CCN(Cc2ccco2)CC1,24.4,5.177,-37.19
CN(Cc1nc2ccccc2[nH]1)C(=O)CN(C)c1ccc(Cl)cn1,-142.7,16.62,-
Cc1ccc(C(=O)NC2CCN(Cc3noc(C(C)(C)C)n3)CC2)s1,-1.988,12.26,13.26
Cc1ccc(CNC(=O)c2cc(NC(=O)C3CC3)n(C)n2)o1,7.482,21.36,-

From ChEMBL document CHEMBL3988442, “University of Dundee, Small-Polar-MMV Screening Library” (2021).